In paper PMC11753425:

Molecular target: T1, OrfGExt (VirB8-like OrfG soluble domain) (Streptococcus thermophilus (ICESt3)) (UniProt Q70CA4)
T1 sequence (looked up): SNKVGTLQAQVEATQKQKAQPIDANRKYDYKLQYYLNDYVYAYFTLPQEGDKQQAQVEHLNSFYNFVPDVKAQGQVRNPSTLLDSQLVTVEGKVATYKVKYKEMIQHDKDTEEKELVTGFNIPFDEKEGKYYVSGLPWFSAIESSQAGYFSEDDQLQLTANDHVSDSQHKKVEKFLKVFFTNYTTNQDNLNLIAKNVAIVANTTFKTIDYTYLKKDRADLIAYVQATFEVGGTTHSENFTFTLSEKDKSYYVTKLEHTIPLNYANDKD
Experiment: switchSENSE (conformation and sizing)
Conditions: switchSENSE buffer; recombinant protein; residues 64-331; label: fluorophore on the tethered nanolever strand; single-stranded DNA

## GAGACTTCAACCCCCGATTTCTAATAGGGGGGTTACATTTTCAAGATTTAGAAAGTGTGTCACTTTGGTCCAAAAAGTGTGTCACTTAGTCAAAAGGAGATATATCAGCGTTCGATGCTTCCGACTAATCAGCCATATCAGCTTACGACTA [ssOV (ssDNA overhang)]
  binding result: binds

Construct, isoform or probe ends are uncertain for at least one entry. At least one verdict was read from the data and is not stated in words by the source. Protein sequences can lack the tags named with them.
